From paper PMC5509376 come the findings set out here.

Amino acid sequences for entries named in this document (tags omitted). A change or cut given only in a name is not applied to a line headed by its entry. Residues count along the entry.
UniProt Q6PHU5, whole entry, looked up, stated change not applied: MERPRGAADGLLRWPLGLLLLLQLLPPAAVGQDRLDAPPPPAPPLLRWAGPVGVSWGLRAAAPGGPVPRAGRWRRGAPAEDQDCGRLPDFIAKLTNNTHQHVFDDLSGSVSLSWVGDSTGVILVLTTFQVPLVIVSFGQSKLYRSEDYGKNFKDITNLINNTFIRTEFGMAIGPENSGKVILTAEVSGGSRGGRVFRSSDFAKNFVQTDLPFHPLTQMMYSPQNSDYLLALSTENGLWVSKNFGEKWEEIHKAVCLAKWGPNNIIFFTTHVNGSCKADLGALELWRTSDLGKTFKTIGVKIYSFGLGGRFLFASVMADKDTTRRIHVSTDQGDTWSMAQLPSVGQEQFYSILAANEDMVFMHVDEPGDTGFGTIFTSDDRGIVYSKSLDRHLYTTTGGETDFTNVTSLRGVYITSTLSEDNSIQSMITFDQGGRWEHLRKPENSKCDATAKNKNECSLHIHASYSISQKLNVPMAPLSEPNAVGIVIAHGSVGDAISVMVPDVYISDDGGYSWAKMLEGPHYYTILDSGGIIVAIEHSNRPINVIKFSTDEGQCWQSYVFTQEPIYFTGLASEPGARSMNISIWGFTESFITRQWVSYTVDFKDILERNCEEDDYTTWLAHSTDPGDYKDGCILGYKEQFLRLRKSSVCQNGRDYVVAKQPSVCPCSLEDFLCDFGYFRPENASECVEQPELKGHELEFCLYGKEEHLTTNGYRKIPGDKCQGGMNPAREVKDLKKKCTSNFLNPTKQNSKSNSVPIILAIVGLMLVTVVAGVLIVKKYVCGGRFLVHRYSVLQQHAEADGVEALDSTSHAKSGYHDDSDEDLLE
UniProt Q6PHU5, 74-825: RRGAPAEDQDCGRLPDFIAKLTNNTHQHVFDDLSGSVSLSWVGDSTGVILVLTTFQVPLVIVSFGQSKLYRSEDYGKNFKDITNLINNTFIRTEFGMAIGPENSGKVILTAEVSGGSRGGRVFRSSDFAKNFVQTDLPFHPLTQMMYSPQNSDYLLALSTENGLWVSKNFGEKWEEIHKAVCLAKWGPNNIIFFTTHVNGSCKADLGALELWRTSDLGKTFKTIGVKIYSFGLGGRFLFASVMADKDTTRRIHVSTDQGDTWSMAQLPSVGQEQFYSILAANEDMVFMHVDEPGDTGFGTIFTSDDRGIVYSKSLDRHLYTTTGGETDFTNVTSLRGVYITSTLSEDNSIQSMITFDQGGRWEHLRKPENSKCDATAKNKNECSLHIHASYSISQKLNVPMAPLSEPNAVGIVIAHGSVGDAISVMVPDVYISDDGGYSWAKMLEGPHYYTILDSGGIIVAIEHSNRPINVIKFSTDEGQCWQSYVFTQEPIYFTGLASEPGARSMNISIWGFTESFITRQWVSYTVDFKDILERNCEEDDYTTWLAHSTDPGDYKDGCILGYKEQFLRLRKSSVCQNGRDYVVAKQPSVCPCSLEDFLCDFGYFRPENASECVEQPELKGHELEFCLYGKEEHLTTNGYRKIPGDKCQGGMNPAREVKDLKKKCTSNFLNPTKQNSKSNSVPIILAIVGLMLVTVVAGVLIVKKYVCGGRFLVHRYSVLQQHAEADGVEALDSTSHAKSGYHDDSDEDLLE

Results are given in words; binding and its absence hold for the method and conditions named. For some of these results: Binding seen in cells or lysates may run through a third protein. Some results given as binding are weak or reduced against the parent protein; the word gives no strength.

The target in one assay is VPS10P domain of sortilin fused with GST (mouse) (UniProt Q6PHU5). The assay can be described thus: pull-down; both purified.
Consider “His-tagged recombinant PrP lacking residues 23–88 (from UniProt P04925 23-230)”, for which the binding entry is “no binding (tested: 2 μg of each protein)”.

In the next assay the target is cellular prion protein (mouse) (UniProt P04925). As to the kind of experiment: co-IP.
Consider “sortilinΔ410–508 (mycHis-tagged) (from UniProt Q6PHU5 74-825) (receptor)”, for which the binding entry is listed as “binds”. Consider “sortilinΔ509–609 (mycHis-tagged) (from UniProt Q6PHU5 74-825) (receptor)”, for which the binding entry was “binds”. Take “sortilinΔ291–409 (mycHis-tagged) (from UniProt Q6PHU5 74-825) (receptor)”: the binding entry is recorded as “binds”. For “sortilinΔ178–290 (mycHis-tagged) (from UniProt Q6PHU5 74-825) (receptor)”, the binding result was “binds”.

On to “full-length mycHis-tagged sortilin (from UniProt Q6PHU5 74-825) (receptor)”, for which the binding entry is “binds”. “sortilinΔ76–177 (mycHis-tagged) (from UniProt Q6PHU5 74-825) (receptor)”: the binding result was “binds”.
